# In the supplement of paper PMC10849652:
# By UniProt entry, the sequences of proteins in these tests, tags left out. Where a name states a change or a piece, a line headed by the entry shows the natural chain unless it says otherwise.
# UniProt P10301: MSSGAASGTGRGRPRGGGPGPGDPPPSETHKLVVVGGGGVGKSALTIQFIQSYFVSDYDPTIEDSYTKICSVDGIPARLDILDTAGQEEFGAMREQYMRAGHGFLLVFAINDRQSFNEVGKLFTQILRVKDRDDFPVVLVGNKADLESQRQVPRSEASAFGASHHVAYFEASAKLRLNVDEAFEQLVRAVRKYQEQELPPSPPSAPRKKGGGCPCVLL
# UniProt P05386, whole entry, looked up: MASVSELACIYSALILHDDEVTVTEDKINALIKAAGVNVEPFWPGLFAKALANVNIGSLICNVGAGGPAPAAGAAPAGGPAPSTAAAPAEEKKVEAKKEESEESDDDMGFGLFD
# UniProt Q13464: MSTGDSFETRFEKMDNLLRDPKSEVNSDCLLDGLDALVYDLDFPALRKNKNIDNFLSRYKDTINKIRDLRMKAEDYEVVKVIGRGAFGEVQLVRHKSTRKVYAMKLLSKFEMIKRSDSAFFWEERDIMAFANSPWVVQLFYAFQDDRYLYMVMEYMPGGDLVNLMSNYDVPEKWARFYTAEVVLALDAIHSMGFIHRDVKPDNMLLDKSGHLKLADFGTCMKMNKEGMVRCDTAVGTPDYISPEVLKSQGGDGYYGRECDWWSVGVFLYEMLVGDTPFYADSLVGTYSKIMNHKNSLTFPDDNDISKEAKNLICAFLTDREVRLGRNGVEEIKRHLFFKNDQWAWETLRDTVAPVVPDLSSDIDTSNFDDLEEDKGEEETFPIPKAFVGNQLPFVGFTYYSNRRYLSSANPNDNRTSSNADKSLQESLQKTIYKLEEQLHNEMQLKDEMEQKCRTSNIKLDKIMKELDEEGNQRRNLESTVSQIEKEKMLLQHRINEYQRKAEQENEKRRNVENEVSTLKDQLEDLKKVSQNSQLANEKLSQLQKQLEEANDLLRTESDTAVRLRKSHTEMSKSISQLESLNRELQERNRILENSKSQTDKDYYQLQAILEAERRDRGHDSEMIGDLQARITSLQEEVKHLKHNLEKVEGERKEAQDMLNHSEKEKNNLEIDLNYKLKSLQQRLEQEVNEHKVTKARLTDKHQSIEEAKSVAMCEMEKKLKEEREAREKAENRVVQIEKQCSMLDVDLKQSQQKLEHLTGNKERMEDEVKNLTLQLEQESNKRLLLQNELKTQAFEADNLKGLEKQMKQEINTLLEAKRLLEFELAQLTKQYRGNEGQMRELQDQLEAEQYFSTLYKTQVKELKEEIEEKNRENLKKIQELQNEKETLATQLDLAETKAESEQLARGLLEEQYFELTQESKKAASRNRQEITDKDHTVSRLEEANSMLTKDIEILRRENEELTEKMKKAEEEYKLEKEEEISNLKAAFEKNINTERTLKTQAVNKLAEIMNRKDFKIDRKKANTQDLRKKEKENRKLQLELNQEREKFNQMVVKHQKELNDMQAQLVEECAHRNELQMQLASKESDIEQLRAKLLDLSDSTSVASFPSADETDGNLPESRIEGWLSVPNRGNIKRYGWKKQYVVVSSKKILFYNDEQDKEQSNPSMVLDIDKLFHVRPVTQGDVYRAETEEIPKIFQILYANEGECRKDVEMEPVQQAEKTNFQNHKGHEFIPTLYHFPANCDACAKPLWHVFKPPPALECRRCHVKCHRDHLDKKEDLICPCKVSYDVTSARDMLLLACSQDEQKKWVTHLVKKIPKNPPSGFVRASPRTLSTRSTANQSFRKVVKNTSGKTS
# UniProt P49247: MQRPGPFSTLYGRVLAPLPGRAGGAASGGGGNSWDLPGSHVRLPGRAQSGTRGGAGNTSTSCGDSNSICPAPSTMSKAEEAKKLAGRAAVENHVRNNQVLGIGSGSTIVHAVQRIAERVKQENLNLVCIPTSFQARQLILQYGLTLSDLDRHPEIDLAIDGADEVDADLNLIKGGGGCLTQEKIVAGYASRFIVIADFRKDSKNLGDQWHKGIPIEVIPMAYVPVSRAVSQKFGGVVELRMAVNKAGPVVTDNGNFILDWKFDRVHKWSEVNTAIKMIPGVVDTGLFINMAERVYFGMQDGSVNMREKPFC
# UniProt P10155: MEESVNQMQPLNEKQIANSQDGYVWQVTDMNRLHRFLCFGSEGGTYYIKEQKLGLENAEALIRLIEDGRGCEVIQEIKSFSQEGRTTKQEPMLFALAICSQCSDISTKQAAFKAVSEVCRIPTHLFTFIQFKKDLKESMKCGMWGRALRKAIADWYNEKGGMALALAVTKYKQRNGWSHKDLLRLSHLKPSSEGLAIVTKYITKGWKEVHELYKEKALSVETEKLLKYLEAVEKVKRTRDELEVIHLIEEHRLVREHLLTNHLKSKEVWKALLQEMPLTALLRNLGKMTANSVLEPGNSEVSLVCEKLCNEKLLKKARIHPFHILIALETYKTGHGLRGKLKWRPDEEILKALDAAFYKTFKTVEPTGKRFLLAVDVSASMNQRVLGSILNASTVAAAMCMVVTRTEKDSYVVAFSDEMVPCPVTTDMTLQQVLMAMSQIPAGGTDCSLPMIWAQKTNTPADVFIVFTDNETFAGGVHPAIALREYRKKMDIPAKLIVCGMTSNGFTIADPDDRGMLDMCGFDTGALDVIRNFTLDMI
# UniProt O75818: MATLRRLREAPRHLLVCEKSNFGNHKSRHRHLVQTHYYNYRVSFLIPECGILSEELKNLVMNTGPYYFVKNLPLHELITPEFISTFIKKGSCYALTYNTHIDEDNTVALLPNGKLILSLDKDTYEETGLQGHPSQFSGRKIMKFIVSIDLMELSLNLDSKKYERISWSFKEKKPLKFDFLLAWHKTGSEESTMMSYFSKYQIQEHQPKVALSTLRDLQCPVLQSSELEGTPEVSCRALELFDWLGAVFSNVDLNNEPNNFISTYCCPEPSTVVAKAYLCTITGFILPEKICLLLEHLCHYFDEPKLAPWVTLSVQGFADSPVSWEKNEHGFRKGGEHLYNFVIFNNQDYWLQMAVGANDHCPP
# UniProt Q96S38: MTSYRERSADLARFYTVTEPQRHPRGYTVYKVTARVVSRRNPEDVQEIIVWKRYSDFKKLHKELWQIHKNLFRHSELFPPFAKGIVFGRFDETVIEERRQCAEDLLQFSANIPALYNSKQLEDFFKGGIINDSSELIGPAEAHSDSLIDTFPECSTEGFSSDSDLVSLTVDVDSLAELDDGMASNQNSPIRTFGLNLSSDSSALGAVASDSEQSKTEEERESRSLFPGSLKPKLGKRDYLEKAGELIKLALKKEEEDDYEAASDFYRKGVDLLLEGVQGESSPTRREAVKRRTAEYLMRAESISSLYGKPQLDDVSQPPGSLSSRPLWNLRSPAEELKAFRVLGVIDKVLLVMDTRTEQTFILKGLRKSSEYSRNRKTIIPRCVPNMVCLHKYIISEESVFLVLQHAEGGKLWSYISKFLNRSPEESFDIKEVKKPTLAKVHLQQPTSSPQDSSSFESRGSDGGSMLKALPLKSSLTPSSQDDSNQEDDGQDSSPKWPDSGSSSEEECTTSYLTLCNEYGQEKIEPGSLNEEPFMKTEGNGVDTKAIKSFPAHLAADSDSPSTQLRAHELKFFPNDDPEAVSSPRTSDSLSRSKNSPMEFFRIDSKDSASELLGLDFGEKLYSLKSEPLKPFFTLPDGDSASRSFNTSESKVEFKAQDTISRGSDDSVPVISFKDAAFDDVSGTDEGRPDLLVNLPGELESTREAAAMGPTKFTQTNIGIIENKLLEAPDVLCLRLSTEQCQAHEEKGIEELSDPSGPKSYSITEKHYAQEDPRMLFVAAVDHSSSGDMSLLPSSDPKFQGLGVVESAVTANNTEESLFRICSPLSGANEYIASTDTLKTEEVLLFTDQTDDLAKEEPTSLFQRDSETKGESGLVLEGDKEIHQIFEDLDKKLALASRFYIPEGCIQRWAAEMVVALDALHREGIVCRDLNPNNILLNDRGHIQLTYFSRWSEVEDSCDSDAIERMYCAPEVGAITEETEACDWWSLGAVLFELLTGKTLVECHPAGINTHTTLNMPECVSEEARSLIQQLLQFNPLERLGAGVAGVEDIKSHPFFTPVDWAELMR
# This is one part of the list. Residues, ends and D or L forms follow the SMILES beside them. *: point of attachment. Cbz = O=C(OCc1ccccc1)*
# Columns and labels:
# Assay in all cases: log2 fold change, soluble protein after heating vs DMSO (PISA); higher = thermal stabilisation; K562 cells, 10 uM, 30 min; active = over 0.2 and 3.5 SD of the protein, either way, in both replicates (recomputed)
# erlotinib = compound: C#Cc1cccc(Nc2ncnc3cc(OCCOC)c(OCCOC)cc23)c1 [erlotinib]
# Outline: (§1)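 Soluble protein was defined as the supernatant after 21,000xg for 90 min. It came from K562 cells at 2×10^6 cells/mL given 10 μM compound for 30 min, heated in aliquots for 3 min across 48°C-58°C, pooled, and extracted in PBS with 0.5% NP-40 at 4°C, and was quantified by TMTpro 16plex LC-MS/MS with equalised channel sums. Thermal stability against control samples, from duplicates, is reported as log2 fold change.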
# [1] = compound: C/C(=N\NC(=O)C1=CC(=CC=C1)S(=O)(=O)N2CCOCC2)/C3=C(C=CC(=C3)Cl)O
# Outline: as §1
# [2] = compound: C1=CC(=C(C=C1Cl)C2=NC3=NC=CN=C3C(=N2)NC4=CC=NC=C4)F
# Outline: as §1
# [3] = compound: C1=CC(=CC=C1C2=NC3=C(N2)C=C(C=C3)C(=O)N)OC4=CC=C(C=C4)Cl
# Outline: as §1
# [4] = compound: C1=CC2=C(C=CC(=C2)/C=C\3/C(=O)NC(=NCC4=CC=CS4)S3)N=C1
# Outline: as §1
# [5] = compound: C1=CC2=NC=CN=C2C=C1/C=C/3\C(=O)NC(=O)S3
# Outline: as §1
# [6] = compound: C1=CC=C(C=C1)C2=NC(=C(N2)C3=CC=NC=C3)C4=CC(=C(C=C4)Cl)O
# Outline: as §1
# [7] = compound: C1=CC=C2C(=C1)C3=NNC4=CC=CC(=C43)C2=O
# Outline: as §1
# [8] = compound: C1CCN(C1)C(=O)NC2=CC=CC(=C2)NC3=NC=C(C(=N3)NCCC4=CN=CN4)Br
# Outline: as §1
# [9] = compound: C1CN(CCC1(CC2=CC=C(C=C2)Cl)N)C3=NC=NC4=C3C=CN4
# Outline: as §1
# IRAK-1-4 Inhibitor I = compound: C1COCCN1CCN2C3=CC=CC=C3N=C2NC(=O)C4=CC(=CC=C4)[N+](=O)[O-] [IRAK-1-4 Inhibitor I]
# Outline: as §1
# ibrutinib = compound: C=CC(=O)N1CCC[C@@H](n2nc(-c3ccc(Oc4ccccc4)cc3)c3c(N)ncnc32)C1 [ibrutinib]
# Outline: as §1
# [10] = compound: CC(=O)c1cnc2ccc(-c3cc(Cl)c(O)c(Cl)c3)nc2c1N[C@H]1CC[C@H](CN(C)C)CC1
# Outline: as §1
# ralimetinib = compound: CC(C)(C)Cn1c(N)nc2ccc(-c3[nH]c(C(C)(C)C)nc3-c3ccc(F)cc3)nc21 [ralimetinib]
# Outline: as §1
# [11] = compound: CC(C)(O)CC(=O)NCCn1ccc2ncnc(Nc3ccc(Oc4cccc(C(F)(F)F)c4)c(Cl)c3)c21
# Outline: as §1
# [12] = compound: CC(C)C1=C2N=C(C=C(N2N=C1)NCC3=CC=CC=C3)NCCCCCCN
# Outline: as §1
# [13] = compound: CC(C)C[C@@H](C=O)NC(=O)[C@H](CC(C)C)NC(=O)[C@H](CC(C)C)NC(=O)OCc1ccccc1
# Outline: as §1
# pinometostat = compound: CC(C)N(C[C@H]1O[C@@H](n2cnc3c(N)ncnc32)[C@H](O)[C@@H]1O)[C@H]1C[C@@H](CCc2nc3cc(C(C)(C)C)ccc3[nH]2)C1 [pinometostat]
# Outline: as §1
# [14] = compound: CC1=C(C(CC(=O)N1)C2=CC=C(C=C2)C(F)(F)F)C(=O)NC3=C(C=C4C(=C3)C=NN4)F
# Outline: as §1
# [15] = compound: CC1=C(C2=C(C=C1)C(=O)C3=CC=CC=C3N2CCCN)C
# Outline: as §1
Target,log2 fold change (erlotinib),log2 fold change [1],log2 fold change [2],log2 fold change [3],log2 fold change [4],log2 fold change [5],log2 fold change [6],log2 fold change [7],log2 fold change [8],log2 fold change [9],log2 fold change (IRAK-1-4 Inhibitor I),log2 fold change (ibrutinib),log2 fold change [10],log2 fold change (ralimetinib),log2 fold change [11],log2 fold change [12],log2 fold change [13],log2 fold change (pinometostat),log2 fold change [14],log2 fold change [15]
RRAS (UniProt P10301),inactive: 0.036,inactive: -0.011,inactive: 0.04,inactive: -0.022,inactive: 0.03,inactive: 0.023,inactive: -0.008,inactive: -0.046,inactive: -0.026,inactive: 0.025,inactive: -0.015,inactive: 0.049,inactive: -0.053,inactive: -0.053,inactive: 0.027,inactive: 0.066,inactive: 0.015,inactive: -0.032,inactive: -0.003,inactive: 0.07
RPL10 (UniProt P27635),inactive: -0.321,inactive: -0.188,inactive: -0.674,inactive: 0.082,inactive: -0.198,inactive: -0.051,inactive: -0.019,inactive: 0.018,inactive: 0.038,inactive: -0.247,inactive: -0.227,inactive: 0.056,inactive: 0.156,inactive: 0.283,inactive: 0,inactive: -0.042,inactive: 0.096,inactive: 0.477,inactive: 0.072,inactive: -0.496
RPS7 (UniProt P62081),inactive: -0.174,inactive: -0.193,inactive: -0.46,inactive: 0.006,inactive: -0.083,inactive: -0.074,inactive: -0.056,inactive: -0.027,inactive: 0.067,inactive: -0.136,inactive: -0.096,inactive: 0.045,inactive: 0.069,inactive: 0.167,inactive: 0.048,inactive: 0.001,inactive: 0.089,inactive: 0.308,inactive: 0.027,inactive: -0.264
RPLP1 (UniProt P05386),inactive: -0.234,inactive: -0.335,inactive: -0.568,inactive: 0.114,inactive: -0.202,inactive: 0.076,inactive: -0.094,inactive: -0.083,inactive: 0.039,inactive: -0.392,inactive: -0.257,inactive: 0.042,inactive: 0.068,inactive: 0.065,inactive: 0,inactive: 0.073,inactive: 0.056,inactive: 0.323,inactive: 0.11,inactive: -0.67
ROCK1 (UniProt Q13464),inactive: 0.049,inactive: -0.025,inactive: 0.042,inactive: -0.007,inactive: 0.199,inactive: 0.027,inactive: -0.007,inactive: -0.018,inactive: 0.032,inactive: 0.205,inactive: -0.019,inactive: 0.013,inactive: 0.015,inactive: 0.031,inactive: -0.079,inactive: -0.026,inactive: 0.012,inactive: 0.027,active: 0.249,inactive: -0.013
RPL13A (UniProt P40429),inactive: -0.412,inactive: -0.348,inactive: -1.01,inactive: 0.079,inactive: -0.242,inactive: -0.077,inactive: -0.083,inactive: 0.05,inactive: 0.04,inactive: -0.475,inactive: -0.258,inactive: 0.045,inactive: 0.294,inactive: 0.281,inactive: 0.011,inactive: -0.044,inactive: 0.036,inactive: 0.562,inactive: 0.115,inactive: -1.06
RPIA (UniProt P49247),inactive: 0.03,inactive: 0.001,inactive: 0.032,inactive: 0.009,inactive: 0.004,inactive: 0.018,inactive: -0.023,inactive: -0.008,inactive: -0.01,inactive: 0.031,inactive: 0.028,inactive: -0.004,inactive: 0.006,inactive: -0.038,inactive: -0.038,inactive: 0.041,inactive: -0.039,inactive: 0,inactive: 0.008,inactive: 0.025
RPL18 (UniProt Q07020),inactive: -0.385,inactive: -0.416,inactive: -0.976,inactive: 0.094,inactive: -0.253,inactive: -0.037,inactive: -0.171,inactive: 0.017,inactive: 0.084,inactive: -0.354,inactive: -0.192,inactive: 0.056,inactive: 0.266,inactive: 0.289,inactive: 0.037,inactive: 0.033,inactive: 0.172,inactive: 0.576,inactive: 0.107,inactive: -0.966
RPL26L1 (UniProt Q9UNX3),inactive: -0.201,inactive: -0.178,inactive: -0.626,inactive: 0.023,inactive: -0.129,inactive: -0.059,inactive: -0.051,inactive: 0.053,inactive: 0.11,inactive: -0.241,inactive: -0.254,inactive: 0.019,inactive: 0.164,inactive: 0.167,inactive: 0,inactive: -0.029,inactive: 0.131,inactive: 0.245,inactive: -0.003,inactive: -0.488
RO60 (UniProt P10155),inactive: -0.028,inactive: 0.005,inactive: 0.027,inactive: 0.031,inactive: -0.001,inactive: -0.028,inactive: -0.034,inactive: -0.046,inactive: 0.021,inactive: 0.023,inactive: -0.006,inactive: 0.062,inactive: 0.004,inactive: -0.047,inactive: -0.024,inactive: 0.049,inactive: -0.021,inactive: -0.047,inactive: 0.045,inactive: -0.073
RPS11 (UniProt P62280),inactive: -0.204,inactive: -0.249,inactive: -0.586,inactive: 0.059,inactive: -0.18,inactive: -0.025,inactive: -0.034,inactive: -0.036,inactive: 0.073,inactive: -0.217,inactive: -0.138,inactive: 0.045,inactive: 0.142,inactive: 0.153,inactive: 0,inactive: -0.003,inactive: 0.069,inactive: 0.425,inactive: 0.053,inactive: -0.639
RPL37A (UniProt P61513),inactive: -0.611,inactive: -0.28,inactive: -0.986,inactive: 0.128,inactive: -0.087,inactive: -0.098,inactive: -0.078,inactive: 0.047,inactive: 0.016,inactive: -0.374,inactive: -0.313,inactive: 0.175,inactive: 0.294,inactive: 0.309,inactive: 0.026,inactive: 0.032,inactive: 0.214,inactive: 0.381,inactive: 0.15,inactive: -0.955
RPP40 (UniProt O75818),inactive: -0.104,inactive: -0.004,inactive: -0.039,inactive: 0.007,inactive: 0.004,inactive: 0,inactive: 0.004,inactive: 0.021,inactive: -0.009,inactive: -0.001,inactive: -0.001,inactive: 0.02,inactive: -0.037,inactive: -0.053,inactive: 0.009,inactive: 0.019,inactive: -0.024,inactive: 0.025,inactive: 0.013,inactive: -0.107
RPS6 (UniProt P62753),inactive: -0.259,inactive: -0.123,inactive: -0.564,inactive: 0.042,inactive: -0.301,inactive: -0.049,inactive: 0.031,inactive: 0.052,inactive: -0.061,inactive: -0.158,inactive: -0.161,inactive: 0.018,inactive: 0.213,inactive: 0.284,inactive: 0.039,inactive: -0.064,inactive: 0.072,inactive: 0.42,inactive: 0.08,inactive: -0.647
RPS6KC1 (UniProt Q96S38),inactive: 0.082,inactive: 0.035,inactive: 0.025,inactive: -0.017,inactive: 0.157,inactive: 0.031,inactive: 0.157,inactive: -0.156,inactive: -0.206,inactive: -0.048,inactive: 0.073,inactive: -0.015,inactive: -0.01,inactive: 0.009,inactive: -0.039,inactive: -0.149,inactive: -0.057,inactive: -0.079,inactive: -0.212,inactive: 0.022
RPL13 (UniProt P26373),inactive: -0.4,inactive: -0.434,inactive: -1.02,inactive: 0.065,inactive: -0.229,inactive: -0.007,inactive: -0.18,inactive: -0.012,inactive: 0.143,inactive: -0.315,inactive: -0.208,inactive: 0.065,inactive: 0.232,inactive: 0.213,inactive: 0.102,inactive: 0.022,inactive: 0.229,inactive: 0.529,inactive: 0.117,inactive: -0.899

# Taken from above:
# RPL18 (UniProt Q07020) – log2 fold change [15]: inactive: -0.966
# RPS6 (UniProt P62753) – log2 fold change [14]: inactive: 0.08
